These are yes or no findings as the source states them, for the method shown. Binding seen in cells or lysates may run through a third protein.
Molecular target: USP10 (human), Q14694
Experiment: co-IP; immunoprecipitation of Figure S6C; cells, bait and antibodies not given; lysates in IP lysis buffer, overnight at 4 °C
Conditions: remark: other sources report otherwise

- binding: no binding
B1: SLC7A11, Q9UPY5 1-501 (protein)
chain: MVRKPVVSTISKGGYLQGNVNGRLPSLGNKEPPGQEKVQLKRKVTLLRGVSIIIGTIIGAGIFISPKGVLQNTGSVGMSLTIWTVCGVLSLFGALSYAELGTTIKKSGGHYTYILEVFGPLPAFVRVWVELLIIRPAATAVISLAFGRYILEPFFIQCEIPELAIKLITAVGITVVMVLNSMSVSWSARIQIFLTFCKLTAILIIIVPGVMQLIKGQTQNFKDAFSGRDSSITRLPLAFYYGMYAYAGWFYLNFVTEEVENPEKTIPLAICISMAIVTIGYVLTNVAYFTTINAEELLLSNAVAVTFSERLLGNFSLAVPIFVALSCFGSMNGGVFAVSRLFYVASREGHLPEILSMIHVRKHTPLPAVIVLHPLTMIMLFSGDLDSLLNFLSFARWLFIGLAVAGLIYLRYKCPDMHRPFKVPLFIPALFSFTCLFMVALSLYSDPFSTGIGFVITLTGVPAYYLFIIWDKKPRWFRIMSEKITRTLQIILEVVPEEDKL
